Data: paper doi:10.1101/2023.02.03.527073
No constants are given. Whether binding was seen depends on the method and setting. Binding seen in cells or lysates may run through a third protein. Some entries that bind do so weakly or less than the wild type. For part of these data: Where a sequence is shown, tags or fusion partners need not be part of it.

Sequences of proteins named here, by UniProt entry; tags and fusion partners are left off.
UniProt P34730: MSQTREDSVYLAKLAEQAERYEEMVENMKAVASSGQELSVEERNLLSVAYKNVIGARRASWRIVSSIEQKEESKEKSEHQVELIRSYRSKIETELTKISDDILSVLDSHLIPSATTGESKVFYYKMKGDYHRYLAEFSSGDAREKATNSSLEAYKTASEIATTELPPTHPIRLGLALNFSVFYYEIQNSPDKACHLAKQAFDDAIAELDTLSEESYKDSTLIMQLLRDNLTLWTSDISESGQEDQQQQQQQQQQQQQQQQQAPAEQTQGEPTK
UniProt P29311: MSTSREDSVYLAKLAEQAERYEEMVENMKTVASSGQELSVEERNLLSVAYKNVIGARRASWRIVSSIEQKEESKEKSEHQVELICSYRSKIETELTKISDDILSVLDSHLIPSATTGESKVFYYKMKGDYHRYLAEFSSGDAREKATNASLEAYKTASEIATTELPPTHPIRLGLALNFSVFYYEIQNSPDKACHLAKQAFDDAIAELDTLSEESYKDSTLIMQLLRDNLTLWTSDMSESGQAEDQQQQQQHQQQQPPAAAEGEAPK

B1: S. cerevisiae Bdf1-SmBiT (protein, UniProt P35817 1-686)
chain: MTDITPVQNDVDVNGNNVNDDVSSNLKRPIDQGDPSNGLAEEENPANNQLHLKKARLDGDALTSSPAGLAENGIEGATLAANGENGYNATGSGAEDEQQGLKKEEGGQGTKQEDLDENSKQELPMEVPKEPAPAPPPEPDMNNLPQNPIPKHQQKHALLAIKAVKRLKDARPFLQPVDPVKLDIPFYFNYIKRPMDLSTIERKLNVGAYEVPEQITEDFNLMVNNSIKFNGPNAGISQMARNIQASFEKHMLNMPAKDAPPVIAKGRRSSAQEDAPIVIRRAQTHNGRPKRTIHPPKSKDIYPYESKKPKSKRLQQAMKFCQSVLKELMAKKHASYNYPFLEPVDPVSMNLPTYFDYVKEPMDLGTIAKKLNDWQYQTMEDFERDVRLVFKNCYTFNPDGTIVNMMGHRLEEVFNSKWADRPNLDDYDSDEDSRTQGDYDDYESEYSESDIDETIITNPAIQYLEEQLARMKVELQQLKKQELEKIRKERRLARGSKKRGKRSKGRSGSKNASSKGRRDKKNKLKTVVTYDMKRIITERINDLPTSKLERAIDIIKKSMPNISEDDEVELDLDTLDNHTILTLYNTFFRQYESSSGASNGLDGTSGVTRDASSLSPTSAGSRKRRSKALSQEEQSRQIEKIKNKLAILDSASPLSQNGSPGQIQSAAHNGFSSSSDDDVSSESEEE

Assays:
Test in all cases: split reporter
[1] = target: S. cerevisiae Bmh2, nanoBiT-tagged (S. cerevisiae) (UniProt P34730)
[2] = target: T1, S. cerevisiae Swc4, LgBiT-tagged (S. cerevisiae) (UniProt P53201)
T1 sequence: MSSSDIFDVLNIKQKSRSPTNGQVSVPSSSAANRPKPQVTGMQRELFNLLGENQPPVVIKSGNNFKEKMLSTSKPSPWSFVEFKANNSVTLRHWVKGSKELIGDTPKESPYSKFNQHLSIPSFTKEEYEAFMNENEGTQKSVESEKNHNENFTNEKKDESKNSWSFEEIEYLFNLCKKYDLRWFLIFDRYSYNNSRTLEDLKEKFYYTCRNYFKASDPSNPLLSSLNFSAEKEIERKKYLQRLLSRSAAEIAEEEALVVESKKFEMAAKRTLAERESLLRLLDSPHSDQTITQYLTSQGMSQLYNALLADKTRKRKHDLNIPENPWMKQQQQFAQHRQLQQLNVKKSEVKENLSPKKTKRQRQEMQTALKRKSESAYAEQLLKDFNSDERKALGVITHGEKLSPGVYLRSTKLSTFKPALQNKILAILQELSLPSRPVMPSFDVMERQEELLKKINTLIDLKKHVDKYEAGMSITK

[3] = target: T2, S. cerevisiae Yaf9, nanoBiT-tagged (S. cerevisiae) (UniProt P53930)
T2 sequence: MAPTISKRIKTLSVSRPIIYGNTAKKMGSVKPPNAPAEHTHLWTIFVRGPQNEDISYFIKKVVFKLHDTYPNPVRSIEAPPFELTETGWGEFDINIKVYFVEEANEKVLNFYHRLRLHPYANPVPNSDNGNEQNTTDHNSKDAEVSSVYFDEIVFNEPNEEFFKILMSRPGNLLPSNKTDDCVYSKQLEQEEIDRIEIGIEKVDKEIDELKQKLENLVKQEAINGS

Molecule	binding [1]	binding [2]	binding [3]
S. cerevisiae Bmh1, nanoBiT-tagged (from UniProt P29311 1-267)	binds		
B1		binds	binds
